# Source: PMC5826258
# Sequences of proteins named here, by UniProt entry; tags and fusion partners are left off. A change or cut given only in a name is not applied to a line headed by its entry.
# UniProt Q8CIR4: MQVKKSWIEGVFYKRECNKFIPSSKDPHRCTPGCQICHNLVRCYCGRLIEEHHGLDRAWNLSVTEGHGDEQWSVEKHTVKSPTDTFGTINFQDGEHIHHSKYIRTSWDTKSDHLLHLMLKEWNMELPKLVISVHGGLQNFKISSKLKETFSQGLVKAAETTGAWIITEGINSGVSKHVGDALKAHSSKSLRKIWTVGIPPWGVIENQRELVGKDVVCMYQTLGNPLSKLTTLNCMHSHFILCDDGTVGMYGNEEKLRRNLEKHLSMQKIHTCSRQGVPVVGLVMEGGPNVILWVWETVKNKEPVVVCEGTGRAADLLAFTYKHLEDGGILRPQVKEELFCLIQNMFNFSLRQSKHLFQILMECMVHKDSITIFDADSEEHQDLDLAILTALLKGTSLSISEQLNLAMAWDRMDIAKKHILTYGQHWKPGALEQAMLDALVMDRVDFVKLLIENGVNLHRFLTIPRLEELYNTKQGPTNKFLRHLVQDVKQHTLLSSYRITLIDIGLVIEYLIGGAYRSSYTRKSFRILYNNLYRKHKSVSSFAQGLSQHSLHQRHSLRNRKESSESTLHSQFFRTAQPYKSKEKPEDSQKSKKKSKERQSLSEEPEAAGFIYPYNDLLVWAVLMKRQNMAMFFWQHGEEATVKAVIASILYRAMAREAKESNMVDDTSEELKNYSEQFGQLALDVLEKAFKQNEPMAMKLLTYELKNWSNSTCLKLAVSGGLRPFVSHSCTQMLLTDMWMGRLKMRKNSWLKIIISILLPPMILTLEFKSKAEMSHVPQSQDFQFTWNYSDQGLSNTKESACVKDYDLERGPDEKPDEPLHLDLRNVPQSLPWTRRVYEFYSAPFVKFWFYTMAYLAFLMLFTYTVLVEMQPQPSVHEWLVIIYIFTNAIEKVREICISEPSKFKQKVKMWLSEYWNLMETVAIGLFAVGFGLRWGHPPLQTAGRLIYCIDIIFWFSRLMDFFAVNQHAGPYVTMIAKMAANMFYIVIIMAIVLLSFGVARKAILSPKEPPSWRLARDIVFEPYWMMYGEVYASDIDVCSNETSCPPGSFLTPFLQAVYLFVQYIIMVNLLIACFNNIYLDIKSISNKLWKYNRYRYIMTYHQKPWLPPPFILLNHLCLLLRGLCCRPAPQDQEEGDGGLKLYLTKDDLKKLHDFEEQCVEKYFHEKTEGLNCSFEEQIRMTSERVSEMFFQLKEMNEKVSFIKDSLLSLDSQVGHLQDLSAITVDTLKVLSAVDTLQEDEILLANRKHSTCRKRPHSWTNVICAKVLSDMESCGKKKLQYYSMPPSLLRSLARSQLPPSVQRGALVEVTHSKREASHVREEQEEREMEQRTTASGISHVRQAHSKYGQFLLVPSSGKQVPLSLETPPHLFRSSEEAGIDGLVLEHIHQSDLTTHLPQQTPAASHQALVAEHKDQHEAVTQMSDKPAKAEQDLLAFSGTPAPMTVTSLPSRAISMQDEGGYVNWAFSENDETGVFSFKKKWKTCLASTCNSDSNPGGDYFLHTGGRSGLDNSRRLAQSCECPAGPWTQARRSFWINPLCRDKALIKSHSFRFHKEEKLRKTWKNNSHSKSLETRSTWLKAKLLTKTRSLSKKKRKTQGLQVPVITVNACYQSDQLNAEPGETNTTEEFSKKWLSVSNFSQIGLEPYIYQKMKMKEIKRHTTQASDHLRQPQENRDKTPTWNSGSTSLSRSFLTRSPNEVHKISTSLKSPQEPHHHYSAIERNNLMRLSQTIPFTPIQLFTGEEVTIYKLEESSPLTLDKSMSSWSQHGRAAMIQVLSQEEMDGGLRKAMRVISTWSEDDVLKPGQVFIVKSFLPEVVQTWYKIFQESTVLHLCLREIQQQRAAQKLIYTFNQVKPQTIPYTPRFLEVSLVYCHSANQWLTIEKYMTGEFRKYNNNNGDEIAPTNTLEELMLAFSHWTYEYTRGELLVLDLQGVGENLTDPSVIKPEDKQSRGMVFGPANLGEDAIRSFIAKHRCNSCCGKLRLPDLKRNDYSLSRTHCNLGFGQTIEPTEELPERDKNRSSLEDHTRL
# UniProt Q923J1: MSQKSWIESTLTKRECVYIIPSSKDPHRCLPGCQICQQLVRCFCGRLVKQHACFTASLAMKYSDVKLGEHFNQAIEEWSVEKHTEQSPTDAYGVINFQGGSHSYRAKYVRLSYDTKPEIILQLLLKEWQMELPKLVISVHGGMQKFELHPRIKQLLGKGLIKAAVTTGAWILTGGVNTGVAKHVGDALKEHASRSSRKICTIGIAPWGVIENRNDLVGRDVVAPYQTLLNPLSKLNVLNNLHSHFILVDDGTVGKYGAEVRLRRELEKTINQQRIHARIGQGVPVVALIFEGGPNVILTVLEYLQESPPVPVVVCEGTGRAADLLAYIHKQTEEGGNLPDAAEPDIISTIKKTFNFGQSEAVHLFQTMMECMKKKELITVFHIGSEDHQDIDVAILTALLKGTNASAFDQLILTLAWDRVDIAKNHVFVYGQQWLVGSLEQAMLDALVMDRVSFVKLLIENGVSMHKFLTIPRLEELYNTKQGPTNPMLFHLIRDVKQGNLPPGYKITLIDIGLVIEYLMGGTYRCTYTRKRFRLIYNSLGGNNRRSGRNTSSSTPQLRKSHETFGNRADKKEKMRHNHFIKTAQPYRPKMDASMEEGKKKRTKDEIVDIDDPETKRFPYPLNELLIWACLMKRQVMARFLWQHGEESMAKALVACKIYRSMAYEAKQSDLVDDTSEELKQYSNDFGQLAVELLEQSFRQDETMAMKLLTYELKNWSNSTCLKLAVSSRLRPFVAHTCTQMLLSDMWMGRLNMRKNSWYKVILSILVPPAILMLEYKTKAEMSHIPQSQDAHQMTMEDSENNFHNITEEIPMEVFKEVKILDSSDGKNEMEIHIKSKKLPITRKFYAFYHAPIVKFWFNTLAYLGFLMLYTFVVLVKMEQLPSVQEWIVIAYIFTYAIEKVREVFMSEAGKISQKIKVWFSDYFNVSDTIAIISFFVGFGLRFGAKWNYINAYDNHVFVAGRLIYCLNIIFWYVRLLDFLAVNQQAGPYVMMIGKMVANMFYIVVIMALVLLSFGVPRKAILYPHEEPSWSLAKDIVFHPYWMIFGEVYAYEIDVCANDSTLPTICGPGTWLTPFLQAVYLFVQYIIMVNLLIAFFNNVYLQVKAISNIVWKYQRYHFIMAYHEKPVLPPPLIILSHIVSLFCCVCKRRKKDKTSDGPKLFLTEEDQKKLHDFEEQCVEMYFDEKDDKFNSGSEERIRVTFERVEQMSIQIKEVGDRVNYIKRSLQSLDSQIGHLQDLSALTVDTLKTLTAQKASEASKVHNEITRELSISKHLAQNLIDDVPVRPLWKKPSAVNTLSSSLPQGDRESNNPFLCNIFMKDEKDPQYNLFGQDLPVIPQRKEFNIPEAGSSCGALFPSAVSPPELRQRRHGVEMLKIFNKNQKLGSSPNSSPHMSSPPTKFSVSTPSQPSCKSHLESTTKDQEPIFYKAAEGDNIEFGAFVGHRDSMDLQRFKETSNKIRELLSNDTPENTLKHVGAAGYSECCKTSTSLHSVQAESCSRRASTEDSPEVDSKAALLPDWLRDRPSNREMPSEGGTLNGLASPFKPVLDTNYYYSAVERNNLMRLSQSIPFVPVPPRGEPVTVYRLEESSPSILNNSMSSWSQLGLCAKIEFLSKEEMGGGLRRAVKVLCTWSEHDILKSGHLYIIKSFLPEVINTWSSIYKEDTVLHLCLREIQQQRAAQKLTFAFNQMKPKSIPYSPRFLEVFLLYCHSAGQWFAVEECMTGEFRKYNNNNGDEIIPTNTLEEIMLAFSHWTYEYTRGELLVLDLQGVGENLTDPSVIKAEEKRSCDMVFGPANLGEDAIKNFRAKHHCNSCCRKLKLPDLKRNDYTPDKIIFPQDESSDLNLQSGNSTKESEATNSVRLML
# UniProt P15116: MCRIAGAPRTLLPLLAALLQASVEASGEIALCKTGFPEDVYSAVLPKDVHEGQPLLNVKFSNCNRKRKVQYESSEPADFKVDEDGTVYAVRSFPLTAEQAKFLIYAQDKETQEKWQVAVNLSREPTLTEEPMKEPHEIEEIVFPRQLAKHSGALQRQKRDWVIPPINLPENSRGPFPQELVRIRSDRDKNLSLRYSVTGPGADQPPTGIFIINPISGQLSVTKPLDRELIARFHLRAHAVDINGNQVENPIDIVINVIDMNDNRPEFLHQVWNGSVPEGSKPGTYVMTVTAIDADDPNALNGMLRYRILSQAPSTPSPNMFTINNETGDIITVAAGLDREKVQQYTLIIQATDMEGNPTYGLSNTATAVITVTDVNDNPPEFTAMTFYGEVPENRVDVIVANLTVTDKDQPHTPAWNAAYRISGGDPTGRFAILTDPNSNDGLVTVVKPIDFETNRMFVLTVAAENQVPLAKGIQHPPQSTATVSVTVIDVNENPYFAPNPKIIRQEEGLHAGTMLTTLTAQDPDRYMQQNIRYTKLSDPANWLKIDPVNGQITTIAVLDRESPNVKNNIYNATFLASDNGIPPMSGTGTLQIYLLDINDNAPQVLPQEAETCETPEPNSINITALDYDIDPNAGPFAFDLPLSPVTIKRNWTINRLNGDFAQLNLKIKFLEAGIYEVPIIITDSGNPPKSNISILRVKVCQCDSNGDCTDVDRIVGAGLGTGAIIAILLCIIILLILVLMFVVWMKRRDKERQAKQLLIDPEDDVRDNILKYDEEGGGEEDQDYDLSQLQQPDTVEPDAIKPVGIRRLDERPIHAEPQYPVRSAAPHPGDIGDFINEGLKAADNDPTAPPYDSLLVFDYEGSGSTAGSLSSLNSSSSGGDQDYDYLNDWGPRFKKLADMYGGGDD
# No constants are given. Whether binding was seen depends on the method and setting. For some of these results: Binding calls can cover weak binding; strength is not graded here. For some of these results: Binding seen in cells or lysates may run through a third protein.
# What was measured:
# [1] = biological target: HA-tagged TRPM6 (mouse, full length, canonical splice form) (mouse) (UniProt Q8CIR4); assay: co-IP; HEK293T cells; HA-TRPM6 and HA-TRPM7 together (printed TRPM6/7) with PCDH15, its deletions, chimeras or CDH2; anti-HA agarose; blot with anti-PCDH15 or CDH2 antibody
# [2] = biological target: HA-tagged TRPM7 (mouse, full length, canonical splice form) (mouse) (UniProt Q923J1); assay: as above
# USH1C (harmonin) = biological target: T1, USH1C (harmonin) (UniProt Q9ES64); assay: two-hybrid; yeast two-hybrid with USH1C as the bait; conducted as described (Zhao et al., 2014)
# T1 sequence: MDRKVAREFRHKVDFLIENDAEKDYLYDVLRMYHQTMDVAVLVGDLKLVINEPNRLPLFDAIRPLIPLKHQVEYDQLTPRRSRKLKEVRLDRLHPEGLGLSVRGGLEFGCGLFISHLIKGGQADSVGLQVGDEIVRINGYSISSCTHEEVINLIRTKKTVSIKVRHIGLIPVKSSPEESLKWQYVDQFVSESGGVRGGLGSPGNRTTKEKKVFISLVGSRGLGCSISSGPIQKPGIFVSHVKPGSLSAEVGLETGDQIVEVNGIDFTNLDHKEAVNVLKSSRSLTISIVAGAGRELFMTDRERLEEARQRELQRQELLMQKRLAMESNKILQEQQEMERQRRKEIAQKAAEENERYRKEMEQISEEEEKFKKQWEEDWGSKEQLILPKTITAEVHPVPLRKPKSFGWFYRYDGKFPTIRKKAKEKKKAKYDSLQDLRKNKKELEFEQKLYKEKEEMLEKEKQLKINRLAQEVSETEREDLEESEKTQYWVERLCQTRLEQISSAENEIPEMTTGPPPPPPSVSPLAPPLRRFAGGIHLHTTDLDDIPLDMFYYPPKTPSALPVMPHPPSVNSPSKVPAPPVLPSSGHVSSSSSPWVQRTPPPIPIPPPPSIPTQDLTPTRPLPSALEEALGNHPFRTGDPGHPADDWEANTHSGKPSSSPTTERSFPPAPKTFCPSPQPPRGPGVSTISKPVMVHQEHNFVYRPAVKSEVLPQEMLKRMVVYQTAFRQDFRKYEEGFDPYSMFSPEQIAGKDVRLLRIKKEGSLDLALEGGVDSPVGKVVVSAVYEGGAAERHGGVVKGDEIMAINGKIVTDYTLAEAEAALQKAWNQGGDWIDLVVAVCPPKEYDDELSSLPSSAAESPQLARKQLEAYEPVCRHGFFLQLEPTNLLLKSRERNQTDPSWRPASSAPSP
binding [1],binding [2],Substance,binding (USH1C (harmonin))
no binding,no binding,CDH2 (N-cadherin) (from UniProt P15116),
,,"TRPV6, the 33 terminal amino acids with the C-terminal seven amino acids deleted (domain or fragment)",no binding
,,"TRPV6, the 33 terminal amino acids with the PDZ-binding interface (PBI) (domain or fragment)",binds
